From PubChem BioAssay AID2517 (National Center for Advancing Translational Sciences (NCATS), 2010)
“And” between values parts separate entries of the source, which are not always exact repeats. Identical values can stand only once. The campaign covered roughly 350,000 compounds. About 1,200 (0.34%) were called active. This list was built around the results that the source calls inconclusive (neither active nor inactive); the mix of calls is not that of the screen. Calls follow the shape of the dose curve; as a rule, active = well fitted inhibition curve with a large enough effect; inconclusive = small, poorly fitted or top-dose-only effect; inactive = no such curve, though single readings can be large or run the other way. A potency beside an inconclusive call is a rough fit, not a confirmed value.

Amino acid sequences for entries named in this document (tags omitted).
UniProt P27695, whole entry, looked up: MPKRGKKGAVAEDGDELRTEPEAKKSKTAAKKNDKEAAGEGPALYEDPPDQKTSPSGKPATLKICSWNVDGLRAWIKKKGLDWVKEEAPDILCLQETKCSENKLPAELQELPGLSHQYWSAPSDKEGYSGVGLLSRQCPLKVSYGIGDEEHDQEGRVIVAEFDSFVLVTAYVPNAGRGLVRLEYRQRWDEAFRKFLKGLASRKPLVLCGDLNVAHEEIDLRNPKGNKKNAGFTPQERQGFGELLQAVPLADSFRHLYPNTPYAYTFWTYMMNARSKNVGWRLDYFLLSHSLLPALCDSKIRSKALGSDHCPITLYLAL

Target: DNA repair nuclease/redox regulator APEX1 (Homo sapiens) (UniProt P27695)
Assay: qHTS Assay for Inhibitors of the Human Apurinic/apyrimidinic Endonuclease 1 (APE1); also: nearly all actives have a fitted effect of over 55% in size;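 as to activity change, negative = inhibition: plate controls were vehicle for no effect and reference inhibitor for full effect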
Details: recombinant APE1, TAMRA/BHQ-2 abasic DNA cleavage fluorescence; activity change, negative = inhibition: at 65.8 µM (top of the series)
Outline: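 Substrate: short duplex with […] THF abasic site, 5'-TAMRA and 3'-BHQ-2, 50 nM final. APE1 at 0.75 nM, preincubated 15 min RT with compound. Fluorescence increase from first to third read measured activity.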
Potency is read from the fitted curve at half-maximal effect.

| Structure (SMILES) | activity change, negative = inhibition | Potency |
| --- | --- | --- |
| Cc1ccc(NC(=O)NC2CC(=O)N(c3ccc4c(c3)OCCO4)C2)c(C)c1 (stereo not given) | inactive: -3.14% |  |
| N#C/C(=C\c1ccc(-c2ccc(C(=O)O)cc2)o1)c1nc2ccccc2[nH]1 |  | inconclusive: 3.98 µM [inhibitor, full curve] |
| O=C(Nc1nc2ccccc2s1)C1CCN(S(=O)(=O)c2cc([N+](=O)[O-])ccc2Cl)CC1 |  | inconclusive: 14.1 µM [inhibitor, partial curve] |
| CCOC(=O)N1CCC(Nc2ccc3nnc(-c4ccccc4)n3n2)CC1 |  | inconclusive: 22.4 µM [inhibitor, single point] |
| c1ccc(-c2ccc(-c3nccc4ccccc34)[nH]2)cc1 |  | inconclusive: 4.47 µM [inhibitor, partial curve, poor fit] |
| COc1ccc(-c2nnn(CC(=O)N(CC3CCCO3)C(C(=O)NC(C)(C)C)c3ccco3)n2)cc1OC (stereo not given) |  | inconclusive: 0.126 µM [inhibitor, full curve, poor fit] |
| O=C(CN1C(=O)S/C(=C\c2ccccc2)C1=O)NNC(=O)c1ccccc1O | inactive: -1.09% |  |
| O=C(NS(=O)(=O)c1ccc(F)cc1)O[C@@H]1C(=O)c2cc(Br)ccc2O[C@H]1c1ccc2c(c1)OCO2 | inactive: 19.8% |  |
| N#CCC(=O)Nc1ccc(C(=O)OCC(=O)N2CCN(C(=O)c3ccco3)CC2)cc1 |  | inconclusive: 18.9 µM [inhibitor, partial curve] |
| CC(=O)Nc1cc(NC(C)=O)cc(C(=O)NCC2(N3CCOCC3)CCCCC2)c1 |  | inconclusive: 16.8 µM [inhibitor, partial curve] |
| O=C(O)c1ccc2nc(-c3ccco3)c(-c3ccco3)nc2c1 |  | inconclusive: 39.8 µM [inhibitor, single point] |
| CC(=O)NC1C(=O)N(CCN2CCOCC2)c2ccc(Cl)cc21 (stereo not given) |  | inconclusive: 37.7 µM [inhibitor, single point] |
| O=C(C1CCN(S(=O)(=O)c2cccc3cccnc23)CC1)N1CCN(c2ccc(Cl)cc2)CC1 |  | inconclusive: 3.55 µM [inhibitor, single point] |
| COc1cc(OC)c(OC)cc1/C=N/NC(=O)c1cc(-c2cccn2C)n[nH]1 | inactive: -8.12% |  |
| O=S(=O)(c1ccc(Br)cc1)N1CCCc2ccccc21 | inactive: 31.7% |  |
| C=CCN1C(=O)C(C)NC1=S (stereo not given) |  | inconclusive: 5.01 µM [inhibitor, single point] |
| O=C1c2ccccc2C(=O)c2c1oc(C(F)(F)F)c2C(=O)c1ccccc1 |  | inconclusive: 28.2 µM [inhibitor, single point] |
| CCOC(=O)c1nn(-c2ccccc2)c(=O)c2c(N)scc12 | inactive: -0.561% |  |
| O=C(NC1CC1)C1CCN(S(=O)(=O)c2cc([N+](=O)[O-])ccc2Cl)CC1 |  | inconclusive: 10.6 µM [inhibitor, partial curve] |
| O=C(CN(Cc1ccco1)Cc1ccco1)Nc1cc(S(=O)(=O)N2CCCCC2)ccc1Cl | inactive: -5.52% |  |
| Cc1ccc(NC(=O)CN(C)C(=O)c2cccc(-n3cccc3)c2)cc1 |  | active: 0.947 µM |
| CCOc1cccc(NC(=O)/C(C#N)=C/c2cccnc2)c1 | inactive: -5.4% |  |

| Structure (SMILES) | activity change, negative = inhibition | Potency |
| --- | --- | --- |
| CC(=C/c1ccco1)/C=N/NC(=O)Cc1cccn1C |  | inconclusive: 31.6 µM [inhibitor, single point] |
| CC(=O)NC1N=C(C)N(c2ccccc2)C1=O (stereo not given) | inactive: -3.48% |  |
| CC(=O)/C(N=Nc1ccc(C(=O)O)cc1[N+](=O)[O-])=C(\C)O |  | active: 10 µM |
| CCOC(=O)CCN1C(=O)[C@@H]2[C@H]3C(=CC[C@H]2C1=O)C(=O)[C@H]1O[C@H]1[C@H]3O |  | inconclusive: 6.31 µM [inhibitor, single point] |
| COc1ccc(CSc2nnc3[nH]c(=O)cc(N)n23)cc1 |  | inconclusive: 44.7 µM [inhibitor, single point] |
| COc1cccc(CN2C[C@]34C=C[C@@H](C[C@@H]3S2(=O)=O)O4)c1 |  | inconclusive: 5.01 µM [inhibitor, single point] |
| CC12C=C(/C=C/CCc3ccco3)C(C)(C1)C(CCc1ccco1)CC2=O (stereo not given) |  | inconclusive: 6.31 µM [inhibitor, single point] |
| CCC(C)(C)C1CCc2[nH]nc(C(=O)N/N=C(\C)c3ccco3)c2C1 (stereo not given) |  | inconclusive: 7.94 µM [inhibitor, single point] |
| Cc1cc(=O)n(CCc2ccccc2)c(O)c1C#N | inactive: -4.09% |  |
| O=C(NC1CCSC1)c1cccc(Cl)c1 (stereo not given) |  | inconclusive: 0.02 µM [inhibitor, full curve, poor fit] |
| CC(=O)c1cc(NC(=O)c2ccc([N+](=O)[O-])cc2)c(=O)oc1C |  | inconclusive: 39.8 µM [inhibitor, single point] |
| N=C1C(c2nc3ccccc3s2)=C(O)CN1NC(=O)c1ccco1 |  | inconclusive: 28.2 µM [inhibitor, single point] |
| O=c1cc(-c2ccc(O)c(O)c2)oc2cc(O[C@@H]3O[C@H](CO)[C@@H](O)[C@H](O)[C@H]3O)cc(O)c12 |  | inconclusive: 31.6 µM [inhibitor, partial curve] |
| CC1=C(C(=O)Nc2ccccc2)C(c2ccc(C)o2)n2c(s/c(=C\c3ccco3)c2=O)=N1 (stereo not given) |  | inconclusive: 28.2 µM [inhibitor, partial curve] |
| CC[C@H](C)[C@H](NC(N)=O)C(=O)NCCc1ccc(Cl)cc1Cl |  | inconclusive: 11.2 µM [inhibitor, partial curve] |
| CCN(CC)CCCNC(=S)N(CCCO)Cc1cc2cc3c(cc2[nH]c1=O)OCO3 | inactive: -8.82% |  |
| CCn1c(CCC(=O)O)nc2cc(S(=O)(=O)N(C)C)ccc21 | inactive: 0.0157% |  |
| O=C(Nc1ccc(C(=O)Oc2ccccc2)c(O)c1)c1ccco1 |  | inconclusive: 39.8 µM [inhibitor, single point] |
| C=CCOc1ccnc(-c2ccccc2)n1 |  | inconclusive: 31.6 µM [inhibitor, single point] |
| Cc1ccc(Cl)cc1N1CCN(C(=O)CN(c2ccccc2)S(=O)(=O)N(C)C)CC1 |  | inconclusive: 25.1 µM [inhibitor, single point] |
| FC(F)(F)c1ccccc1-c1cncnc1Nc1ccccc1 |  | inconclusive: 39.8 µM [inhibitor, single point] |
| COc1c(-c2ccc(O)c(O)c2)oc2cc(O)cc(O)c2c1=O |  | inconclusive: 15.8 µM [inhibitor, partial curve] and inconclusive: 22.4 µM [inhibitor, partial curve] |

| Structure (SMILES) | activity change, negative = inhibition | Potency |
| --- | --- | --- |
| C[C@@](N)(C(=O)O)c1ccc(P(=O)(O)O)cc1 |  | inconclusive: 39.8 µM [inhibitor, single point] |
| Cc1cc2c(NC(=O)CC(C)(C)CC(=O)O)cccc2nn1 |  | inconclusive: 12.6 µM [inhibitor, partial curve] |
| Cc1ccc(S(=O)(=O)N/N=C\c2cn(CC(N)=O)c3ccccc23)cc1 | inactive: 4.63% |  |
| CC[C@H](C)C1NC(=O)[C@H](CC(=O)O)NC(=O)c2cc([N+](=O)[O-])cc(I)c2NCCC(C(N)=O)NC1=O (stereo not given in full) |  | inconclusive: 20 µM [inhibitor, partial curve] |
| COc1cccc(Nc2nc(-c3ccc4c(c3)OCCO4)cs2)c1 |  | inconclusive: 20 µM [inhibitor, single point] |
| CS(=O)(=O)N(CC(=O)Nc1ccc2c(c1)OCO2)c1ccccc1 |  | inconclusive: 0.355 µM [inhibitor, full curve] |
| O=C(COC(=O)C1CC(O)CN1S(=O)(=O)c1ccc(Cl)cc1)c1ccccc1 (stereo not given) | inactive: -6.14% |  |
| CC(C)c1nnc(NC(=O)CSc2nc3ccccc3[nH]2)s1 |  | inconclusive: 22.4 µM [inhibitor, single point] |
| Cn1cnnc1Sc1ccc(/C=C/C(=O)c2ccc(O)cc2)cc1[N+](=O)[O-] |  | inconclusive: 2.82 µM [inhibitor, partial curve, poor fit] |
| N[C@H](C(=O)O)c1cc(O)cc(O)c1 |  | inconclusive: 39.8 µM [inhibitor, single point] |
| N#CC1=C(N)Oc2cc(O)c(Cl)cc2C1c1cccnc1 (stereo not given) | inactive: 52.7% |  |
| C[C@@H](C(=O)Nc1ccc2ccccc2c1)[C@@H]1C[C@@]1(C)[C@@H](NS(=O)(=O)c1ccc2ccccc2c1)c1ccccc1 |  | inconclusive: 35.5 µM [inhibitor, single point] |
| CC1CCCN(C2=C(NS(=O)(=O)c3ccc(Br)cc3)C(=O)c3ccccc3C2=O)C1 (stereo not given) | inactive: 4.01% |  |
| COc1ccc(OC)c(S(=O)(=O)Nc2ccc(Oc3ccccc3)cc2)c1 |  | inconclusive: 44.7 µM [inhibitor, single point] |
| Cc1ccc(C2C3=C(CCCC3=O)Nc3[nH]c(=S)[nH]c(=O)c32)cc1 (stereo not given) | inactive: -0.858% |  |
| COc1ccc(C/C(O)=C(\C#N)c2nc3ccccc3s2)cc1 | inactive: -1.28% |  |
| O=C(/C=C/c1ccco1)c1ccc(O)cc1 |  | inconclusive: 20 µM [inhibitor, partial curve, poor fit] |
| CC(C)CC(=O)NC(=S)Nc1ccccc1N1CCCC1 |  | inconclusive: 3.55 µM [inhibitor, single point] |
| CC[C@]12c3[nH]c4cc(CCC(=O)N(C)C)ccc4c3CCN1C(=O)[C@@H](CC(=O)NCCCOC)C[C@@H]2C(=O)N1CCN(C(=O)C2CC2)CC1 |  | active: 21.2 µM |
| CC(C)CC(=O)N[C@H](C(=O)N[C@H](C(=O)N[C@@H](CC(C)C)[C@@H](O)CC(=O)N[C@@H](C)C(=O)N[C@@H](CC(C)C)[C@@H](O)CC(=O)O)C(C)C)C(C)C |  | inactive |
| O=C(CSc1nc(-c2ccc(F)cc2)nc2c1Cc1ccccc1O2)Nc1ccc(C(=O)O)cc1 |  | inconclusive: 12.6 µM [inhibitor, partial curve] |
